PubChem BioAssay AID493014 (National Center for Advancing Translational Sciences (NCATS), 2011)
The other results are listed elsewhere or left out. Shown are side measurements of this screen, not its main read-out; they come without a call. Most of these compounds were active or inconclusive in the main read-out, so they are no random draw. Potencies come from curve fits of mixed quality, noted in brackets.

Experiment: qHTS Assay to Find Inhibitors of Chronic Active B-Cell Receptor Signaling
Details: ABC-DLBCL IkBa-CBG/CBR reporter, luminescence ratio (green luciferase fused to IkBa over red control in TMD8 lymphoma cells), 4 h
In short: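 Concentration-response series (up to 46 uM) were applied to TMD8 dual-reporter cells for 4 h at 37C with doxycycline. Green/red ratio, after filter-overlap correction, defined %Activity; red signal alone was normalised to basal cells and zero luminescence.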

[1] = measured here: CBR red luminescence, cell number
[2] = measured here: IkBa-CBG green luminescence

Row | SMILES | AC50 [1] | AC50 [2]
1 | CC1(C)Cc2c(cnn2-c2ccc(F)cc2)C(NC(=O)CN2CCCCC2=O)C1 (stereo not drawn) | 8.91 µM [falling, partial curve] | –
2 | COc1cc(/C=N\Nc2nc3ccccc3[nH]2)cc(OC)c1OC | 35.5 µM [falling, single point] | –
3 | Cc1ccc(/C=N/N2C(=S)SC(C)(C)C2N(O)C(=O)Nc2ccc([N+](=O)[O-])cc2)cc1 (stereo not drawn) | 14.1 µM [falling, partial curve] | –
4 | O=C(CCCN1C(=O)/C(=C/c2cccc(Br)c2)SC1=S)Nc1cccnc1 | 7.08 µM [falling, partial curve] | –
5 | COc1ccc(Cl)cc1C(=O)N(Cc1nc(-c2cccc(C)c2)no1)C(C)C | 28.2 µM [falling, single point] | –
6 | CCOc1ccc(CCNC(=O)COC(=O)CNC(=O)c2ccc(Br)o2)cc1OCC | 4.11 µM [rising, full curve, poor fit] | –
7 | O=C(COc1ccccc1)Nc1ccccc1C(=O)NCc1ccco1 | 11.2 µM [falling, single point] | –
8 | Cc1cc(C)cc(N=Cc2ccc([N+](=O)[O-])s2)c1 | 23.1 µM [falling, single point] | –
9 | O=C(N/N=C/c1cccnc1)c1cc(C2CC2)nc2ccccc12 | 35.5 µM [falling, single point] | –
10 | CCOC(=O)C1CCN(C(=O)c2cc(-c3ccncc3)nc3ccccc23)CC1 | 29.1 µM [rising, single point] | –
11 | Cc1cccc(Oc2ccccc2N)c1 | 0.058 µM [rising, full curve, poor fit] | –
12 | COC(=O)CNC(=O)c1c(-c2c(Cl)cccc2Cl)noc1C | 7.94 µM [rising, partial curve, poor fit] | –
13 | OC(COCc1cccs1)CN1CCN(c2ccccc2Cl)CC1 (stereo not drawn) | 7.31 µM [rising, partial curve, poor fit] | –
14 | CCSc1nnc(NC(=O)c2c(-c3ccccc3Cl)noc2C)s1 | 10 µM [falling, partial curve, poor fit] | –
15 | C/C(CC(=O)Nc1cc(C)cc(C)c1)=N\NC(=O)c1ccccn1 | 11.6 µM [falling, partial curve] | –
16 | c1ccc(N2CCN(c3nc4ccccc4n4nnnc34)CC2)cc1 | 5.8 µM [falling, partial curve] | 1.84 µM [rising, full curve, poor fit]
17 | CC(C)c1nnc(NC(=O)CCC(=O)NCC2CCCO2)s1 (stereo not drawn) | 35.5 µM [rising, single point] | –
18 | O=C1N/C(=N\c2ccccn2)SC1Cc1ccc(Cl)cc1 (stereo not drawn) | 1.12 µM [rising, full curve] | –
19 | CS(=O)(=O)N1CCN(c2ccccc2NC(=O)c2cccc3ccccc23)CC1 | 0.146 µM [rising, full curve, poor fit] | –
20 | CC1CCCN(S(=O)(=O)c2ccc(NC(=O)Cc3ccc(S(=O)(=O)N4CCOCC4)s3)cc2)C1 (stereo not drawn) | 6.51 µM [falling, partial curve, poor fit] | –
21 | CC(C)NC(=O)c1ccc2c(c1)N(CC(=O)N1CCCC1)C(=O)C(C)(C)O2 | 20 µM [rising, partial curve, poor fit] | –

In the list so far, 2 have a nitro group on carbon.
Row | SMILES | AC50 [1] | AC50 [2]
3 | Cc1ccc(/C=N/N2C(=S)SC(C)(C)C2N(O)C(=O)Nc2ccc([N+](=O)[O-])cc2)cc1 (stereo not drawn) | 14.1 µM [falling, partial curve] | –
8 | Cc1cc(C)cc(N=Cc2ccc([N+](=O)[O-])s2)c1 | 23.1 µM [falling, single point] | –

Next part

Row | SMILES | AC50 [1] | AC50 [2]
22 | O=C(NC(=S)Nc1ccc(S(=O)(=O)N2CCCC2)cc1)C1CC1 | 5.62 µM [rising, partial curve, poor fit] | –
23 | Cc1c(Cl)c(C(=O)NNC(=S)NCc2ccco2)nn1C | 16.4 µM [falling, single point] | –
24 | CN1/C(=C\C(=S)NC(=O)c2cccc(Br)c2)C(C)(C)c2ccccc21 | 6.51 µM [rising, single point] | –
25 | CN1c2ccsc2C(O)=C(C(=O)Nc2ccccc2)S1(=O)=O | 18.4 µM [falling, partial curve] | –
26 | Cc1ccccc1NC(=S)NNC(=O)c1ccco1 | 10 µM [falling, partial curve] | –
27 | Cc1c(CC(=O)NCCC(C)C)c(=O)oc2cc3c(cc12)CCC(C)(C)O3 | 3.55 µM [rising, single point] | –
28 | COc1cccc(Cn2cnc3c(NS(=O)(=O)c4ccc(Cl)cc4Cl)c(C)c(C)cc32)c1 | 5.01 µM [falling, partial curve, poor fit] | –
29 | CN(C)S(=O)(=O)c1ccc(C(=O)N2CCN(C(=O)C3CCCO3)CC2)cc1 (stereo not drawn) | 3.66 µM [rising, partial curve, poor fit] | –
30 | O=C(NC(CO)Cc1ccccc1)c1ccccc1 (stereo not drawn) | 29.1 µM [falling, single point] | –
31 | COc1ccc(C(=O)OCC(=O)N2CCCCC2)cc1[N+](=O)[O-] | 10 µM [falling, partial curve] | –
32 | CC(C)CNC(=O)COC(=O)C1c2ccccc2Oc2ccccc21 | 3.16 µM [rising, partial curve] | 3.16 µM [falling, single point]
33 | Cc1ccc2nc(N(CCCN(C)C)C(=O)c3ccco3)sc2c1 | 31.6 µM [falling, single point] | –
34 | CN(C)c1ccc(CNC(=O)C2CCN(S(=O)(=O)c3ccc4c(c3)CCCC(=O)N4)CC2)cc1 | 5.62 µM [rising, full curve, poor fit] | –
35 | COc1ccccc1/C=C/c1nc2ccc(OC(C)=O)cc2c(=O)o1 | 0.631 µM [falling, full curve, poor fit] | –
36 | CC(C)(C)C(=O)Nc1ccc(C(=O)CN2C(=O)NC3(CCOc4ccccc43)C2=O)cc1 (stereo not drawn) | 11.6 µM [rising, partial curve, poor fit] | –
37 | O=C1C(=O)c2ccccc2C(O)=C1CCCCl | 22.4 µM [falling, single point] | –
38 | O/N=C1/C2C3CC4C5C3C1C5C1(OCCO1)C42 (stereo not drawn) | 35.5 µM [falling, single point] | –
39 | O=c1[nH]n2c(=O)c3c([nH]c2c1N=Nc1cccc(Cl)c1)CCC3 | 16.4 µM [falling, single point] | –
40 | C=CC(O)(C#CCN(CC)CC)c1ccccc1 (stereo not drawn) | 2.31 µM [rising, single point] | –
41 | C=CCc1cc(Cl)ccc1OCCOCCNC(C)(C)C | 12.6 µM [falling, partial curve, poor fit] | –
